# Substitutions are numbered along the chain they refer to. These are yes or no findings as the source states them, for the method shown.
# B1: <IL17> 9C6-2B6-136 (antibody, V domains shown)
# VH: EVQLVESGGGLVQPGGSLRLSCAASGFSLDSYGVHWVRQATGKGLEWVSVIWSDGTTTYNSALKSRFTISRENAKNSLYLQMNSLRAGDTAVYYCARDTHYRLYYYAMDYWGQGTTVTVSS
# VL: DIVMTQSPLSLPVTPGEPASISCRSSQSLVHSNGDTYFHWYLQKPGQSPQLLIYKVSNRFSGVPDRFSGSGSGTDFTLKISRVEAEDVGVYYCSQTTHAPFTFGQGTKLEIK
# B2: <IL17> 9C6-2B6 (antibody, V domains shown)
# VH: QVQLKESGPGLVAPSQSLSITCTVSGFSLDSYGVHWVRQPPGKGLEWLVVIWSDGTTTYNSALKSRLSITKDNSKSQVFLKMNSLQTDDTAIYYCARDTHYRLYYYAMDYWGQGTSVTVSS
# VL: DVVMTQTPLSLPVSLGDQASISCRSSQSLVHSNGDTYFHWYLQKPGQSPKLLIYKVSNRFSGVPDRFSGSGSGTDFTLKINRVEAEDLGVYFCSQTTHAPFTFGSGTKLEIK
# B3: <IL17> 9C6-2B6-134 (antibody, V domains shown)
# VH: B1 VH with T41P, E72D, A74S, S77T, G88E
# VL: B1 VL
# Biological target: T1, Human IL17E (human) (UniProt Q9H293)
# T1 sequence: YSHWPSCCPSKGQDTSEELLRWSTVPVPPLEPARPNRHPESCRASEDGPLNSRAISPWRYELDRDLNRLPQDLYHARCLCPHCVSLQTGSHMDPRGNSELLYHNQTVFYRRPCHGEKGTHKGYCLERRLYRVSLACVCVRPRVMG
# Assay: ELISA on coated IL-17 subtype; OD relative to IL-17A binding (100)
row,Binder,binding
1,B1,no binding (tested: 10 µg/ml antibody)
2,B2,no binding (tested: 10 µg/ml antibody)
3,B3,no binding (tested: 10 µg/ml antibody)

# Reference: patent US20150132307A1
